Ends that are not written are not given here.
Test: general procedure: Boc solid-phase peptide synthesis; p-methylbenzhydrylamine hydrochloride resin
Conditions: whole synthesis, scale of the general procedure 0.2-0.5 mmoles

Substance | final HPLC purity [%]
EGPFDVQETEIAVQAKQPDVEEILSKGQHLYKEKPATQPVKRKLEDLSSE-NH2 | 97.6
LISLESEERGELERILADLEEENRNLQAEYDRLKQQHEHKGLSPLPSPPE-NH2 | 99.9
PEDVDTTYPDKKSILMYITSLFQVLPQQVSIEAIQEVEMLPRPPKVTKEE-NH2 | 99.6
YEREDVQKKTFTKWVNAQFSKFGKQHIENLFSDLQDGRRLLDLLEGLTGQ-NH2 | 95.9

Source: patent publication US5340718 (dated 1994)
